{"sequences": {"note": "Chains of the proteins cited; added tags and fusions are not shown.", "UniProt Q9HCK8": "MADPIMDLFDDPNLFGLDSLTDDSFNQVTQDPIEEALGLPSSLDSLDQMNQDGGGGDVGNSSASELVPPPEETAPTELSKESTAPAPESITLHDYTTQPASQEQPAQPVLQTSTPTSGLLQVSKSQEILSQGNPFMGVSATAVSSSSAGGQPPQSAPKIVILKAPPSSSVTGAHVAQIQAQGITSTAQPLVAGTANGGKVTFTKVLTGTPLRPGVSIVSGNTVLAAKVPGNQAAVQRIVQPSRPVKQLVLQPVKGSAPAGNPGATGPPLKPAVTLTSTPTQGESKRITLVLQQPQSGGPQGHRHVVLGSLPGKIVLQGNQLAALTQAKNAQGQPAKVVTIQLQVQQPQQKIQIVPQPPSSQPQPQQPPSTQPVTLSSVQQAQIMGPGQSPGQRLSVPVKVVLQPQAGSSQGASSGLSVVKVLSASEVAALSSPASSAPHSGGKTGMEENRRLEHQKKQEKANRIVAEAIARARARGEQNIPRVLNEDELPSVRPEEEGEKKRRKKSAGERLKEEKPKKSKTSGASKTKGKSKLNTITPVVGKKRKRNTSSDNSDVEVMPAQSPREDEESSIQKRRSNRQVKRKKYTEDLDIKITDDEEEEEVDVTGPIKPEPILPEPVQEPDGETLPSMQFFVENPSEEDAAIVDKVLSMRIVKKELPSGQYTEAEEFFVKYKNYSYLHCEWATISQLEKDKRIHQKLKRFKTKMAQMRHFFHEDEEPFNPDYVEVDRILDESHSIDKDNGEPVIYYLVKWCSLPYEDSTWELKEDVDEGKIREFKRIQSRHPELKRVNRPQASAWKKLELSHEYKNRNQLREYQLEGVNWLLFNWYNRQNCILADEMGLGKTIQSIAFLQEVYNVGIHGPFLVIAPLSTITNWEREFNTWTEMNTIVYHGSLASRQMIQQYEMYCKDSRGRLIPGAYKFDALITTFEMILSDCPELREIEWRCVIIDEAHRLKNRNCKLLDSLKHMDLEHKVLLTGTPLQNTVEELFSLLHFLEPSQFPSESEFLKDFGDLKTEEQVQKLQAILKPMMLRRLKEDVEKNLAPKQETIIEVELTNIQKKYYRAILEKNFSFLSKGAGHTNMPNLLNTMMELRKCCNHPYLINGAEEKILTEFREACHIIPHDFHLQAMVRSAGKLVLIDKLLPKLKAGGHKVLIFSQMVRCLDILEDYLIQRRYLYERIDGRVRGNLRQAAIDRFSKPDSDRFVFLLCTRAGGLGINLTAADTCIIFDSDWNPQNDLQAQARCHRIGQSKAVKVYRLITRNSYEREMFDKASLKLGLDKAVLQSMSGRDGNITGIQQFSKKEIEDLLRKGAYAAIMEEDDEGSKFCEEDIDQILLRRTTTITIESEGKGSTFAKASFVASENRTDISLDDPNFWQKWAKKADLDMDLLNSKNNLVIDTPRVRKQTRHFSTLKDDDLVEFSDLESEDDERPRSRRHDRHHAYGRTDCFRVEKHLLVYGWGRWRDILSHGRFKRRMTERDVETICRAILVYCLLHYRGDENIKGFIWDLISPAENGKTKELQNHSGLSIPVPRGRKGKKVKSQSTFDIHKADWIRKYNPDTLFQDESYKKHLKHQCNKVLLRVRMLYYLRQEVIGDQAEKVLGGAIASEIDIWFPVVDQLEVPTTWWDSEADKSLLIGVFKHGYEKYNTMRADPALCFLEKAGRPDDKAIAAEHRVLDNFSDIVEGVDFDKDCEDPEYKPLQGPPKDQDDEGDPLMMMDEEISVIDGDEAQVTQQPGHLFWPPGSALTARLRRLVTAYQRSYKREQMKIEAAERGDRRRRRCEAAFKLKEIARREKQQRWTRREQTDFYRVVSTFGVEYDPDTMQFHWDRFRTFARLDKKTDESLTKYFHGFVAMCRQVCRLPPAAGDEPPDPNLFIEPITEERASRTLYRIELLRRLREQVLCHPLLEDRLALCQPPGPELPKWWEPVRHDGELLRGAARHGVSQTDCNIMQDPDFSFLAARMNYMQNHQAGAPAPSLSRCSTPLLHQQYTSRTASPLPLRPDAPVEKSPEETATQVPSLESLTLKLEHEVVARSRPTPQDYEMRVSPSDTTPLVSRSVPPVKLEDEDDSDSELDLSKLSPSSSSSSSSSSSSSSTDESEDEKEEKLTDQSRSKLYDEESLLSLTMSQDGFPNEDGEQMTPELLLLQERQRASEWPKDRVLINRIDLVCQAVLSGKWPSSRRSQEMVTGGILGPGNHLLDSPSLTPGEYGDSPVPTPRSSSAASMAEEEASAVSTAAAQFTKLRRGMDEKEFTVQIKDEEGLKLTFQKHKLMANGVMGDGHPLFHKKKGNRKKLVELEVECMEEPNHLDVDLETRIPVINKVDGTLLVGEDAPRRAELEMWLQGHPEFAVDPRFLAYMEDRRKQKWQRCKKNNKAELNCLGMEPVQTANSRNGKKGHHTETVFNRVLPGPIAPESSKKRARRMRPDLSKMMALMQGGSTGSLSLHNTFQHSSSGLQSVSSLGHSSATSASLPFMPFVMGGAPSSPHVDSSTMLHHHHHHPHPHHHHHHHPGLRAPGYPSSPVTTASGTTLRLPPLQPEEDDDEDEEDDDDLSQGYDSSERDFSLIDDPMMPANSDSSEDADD", "UniProt Q9BYW2": "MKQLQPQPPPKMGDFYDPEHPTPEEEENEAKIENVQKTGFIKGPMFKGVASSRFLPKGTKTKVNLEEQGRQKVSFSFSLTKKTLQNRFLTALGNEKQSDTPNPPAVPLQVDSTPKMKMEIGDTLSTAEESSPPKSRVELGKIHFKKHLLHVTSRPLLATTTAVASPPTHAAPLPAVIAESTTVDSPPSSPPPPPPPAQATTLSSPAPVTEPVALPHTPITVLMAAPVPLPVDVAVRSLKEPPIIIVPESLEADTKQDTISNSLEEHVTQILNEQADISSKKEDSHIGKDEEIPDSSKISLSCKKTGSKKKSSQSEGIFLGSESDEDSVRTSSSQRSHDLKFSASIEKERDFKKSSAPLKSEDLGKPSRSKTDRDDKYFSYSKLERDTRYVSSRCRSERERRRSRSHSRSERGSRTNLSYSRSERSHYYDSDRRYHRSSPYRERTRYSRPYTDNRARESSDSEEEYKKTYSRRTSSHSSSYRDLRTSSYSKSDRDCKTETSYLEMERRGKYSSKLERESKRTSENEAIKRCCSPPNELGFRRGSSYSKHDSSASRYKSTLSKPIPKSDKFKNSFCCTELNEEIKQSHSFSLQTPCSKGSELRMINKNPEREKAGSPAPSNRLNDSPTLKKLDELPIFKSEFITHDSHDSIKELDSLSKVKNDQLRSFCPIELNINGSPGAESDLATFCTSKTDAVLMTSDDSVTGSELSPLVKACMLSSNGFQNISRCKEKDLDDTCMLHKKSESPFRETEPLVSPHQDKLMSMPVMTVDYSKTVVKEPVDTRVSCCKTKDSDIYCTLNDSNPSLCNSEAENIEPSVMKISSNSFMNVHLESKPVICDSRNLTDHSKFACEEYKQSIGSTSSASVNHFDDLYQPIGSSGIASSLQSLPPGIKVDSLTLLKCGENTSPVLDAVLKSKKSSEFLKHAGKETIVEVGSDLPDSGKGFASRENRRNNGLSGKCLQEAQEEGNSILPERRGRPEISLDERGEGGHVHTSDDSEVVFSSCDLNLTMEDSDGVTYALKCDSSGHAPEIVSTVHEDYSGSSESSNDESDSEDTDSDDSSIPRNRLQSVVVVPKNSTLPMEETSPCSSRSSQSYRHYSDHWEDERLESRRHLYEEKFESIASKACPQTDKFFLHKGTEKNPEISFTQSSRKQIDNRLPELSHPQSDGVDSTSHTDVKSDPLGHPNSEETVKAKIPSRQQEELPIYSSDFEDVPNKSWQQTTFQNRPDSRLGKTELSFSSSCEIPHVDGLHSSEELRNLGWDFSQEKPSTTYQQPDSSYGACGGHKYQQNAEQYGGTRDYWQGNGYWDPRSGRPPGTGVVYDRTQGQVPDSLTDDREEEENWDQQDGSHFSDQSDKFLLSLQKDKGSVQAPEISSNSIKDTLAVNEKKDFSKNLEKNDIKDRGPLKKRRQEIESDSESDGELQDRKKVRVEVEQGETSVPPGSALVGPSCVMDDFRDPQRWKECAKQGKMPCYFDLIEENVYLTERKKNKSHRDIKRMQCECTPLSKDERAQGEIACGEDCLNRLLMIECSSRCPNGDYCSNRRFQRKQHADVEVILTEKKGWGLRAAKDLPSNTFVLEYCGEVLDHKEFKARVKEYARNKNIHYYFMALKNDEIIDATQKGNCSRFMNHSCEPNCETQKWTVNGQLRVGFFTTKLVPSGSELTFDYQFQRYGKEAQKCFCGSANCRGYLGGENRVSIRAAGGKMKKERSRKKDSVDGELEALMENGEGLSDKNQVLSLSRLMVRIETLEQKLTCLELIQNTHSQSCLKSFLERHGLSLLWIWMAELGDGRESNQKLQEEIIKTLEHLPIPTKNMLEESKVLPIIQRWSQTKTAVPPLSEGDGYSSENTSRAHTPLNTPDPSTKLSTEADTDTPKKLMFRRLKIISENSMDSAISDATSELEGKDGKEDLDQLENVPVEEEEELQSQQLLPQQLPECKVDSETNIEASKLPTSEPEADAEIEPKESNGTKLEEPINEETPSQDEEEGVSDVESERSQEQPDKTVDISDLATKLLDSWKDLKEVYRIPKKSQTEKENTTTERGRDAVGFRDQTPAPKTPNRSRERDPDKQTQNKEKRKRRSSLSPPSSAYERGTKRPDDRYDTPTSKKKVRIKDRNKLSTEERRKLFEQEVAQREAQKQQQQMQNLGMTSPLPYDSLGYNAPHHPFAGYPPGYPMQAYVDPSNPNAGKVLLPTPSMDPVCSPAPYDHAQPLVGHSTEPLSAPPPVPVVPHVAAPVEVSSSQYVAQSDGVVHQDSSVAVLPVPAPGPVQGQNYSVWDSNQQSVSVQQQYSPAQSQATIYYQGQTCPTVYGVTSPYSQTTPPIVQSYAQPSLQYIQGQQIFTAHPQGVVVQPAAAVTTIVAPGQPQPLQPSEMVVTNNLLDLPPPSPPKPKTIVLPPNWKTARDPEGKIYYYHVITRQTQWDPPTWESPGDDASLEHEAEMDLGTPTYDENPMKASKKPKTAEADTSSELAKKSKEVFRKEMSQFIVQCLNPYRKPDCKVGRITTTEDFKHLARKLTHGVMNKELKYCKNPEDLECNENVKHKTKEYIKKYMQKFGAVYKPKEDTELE"}, "source": "paper PMC9825192", "binders": {"B1": {"name": "heterogeneous nuclear ribonucleoprotein L (protein, UniProt P14866 1-589)", "chain": "MSRRLLPRAEKRRRRLEQRQQPDEQRRRSGAMVKMAAAGGGGGGGRYYGGGSEGGRAPKRLKTDNAGDQHGGGGGGGGGAGAAGGGGGGENYDDPHKTPASPVVHIRGLIDGVVEADLVEALQEFGPISYVVVMPKKRQALVEFEDVLGACNAVNYAADNQIYIAGHPAFVNYSTSQKISRPGDSDDSRSVNSVLLFTILNPIYSITTDVLYTICNPCGPVQRIVIFRKNGVQAMVEFDSVQSAQRAKASLNGADIYSGCCTLKIEYAKPTRLNVFKNDQDTWDYTNPNLSGQGDPGSNPNKRQRQPPLLGDHPAEYGGPHGGYHSHYHDEGYGPPPPHYEGRRMGPPVGGHRRGPSRYGPQYGHPPPPPPPPEYGPHADSPVLMVYGLDQSKMNCDRVFNVFCLYGNVEKVKFMKSKPGAAMVEMADGYAVDRAITHLNNNFMFGQKLNVCVSKQPAIMPGQSYGLEDGSCSYKDFSESRNNRFSTPEQAAKNRIQHPSNVLHFFNAPLEVTEENFFEICDELGVKRPSSVKVFSGKSERSSSGLLEWESKSDALETLGFLNHYQMKNPNGPYPYTLKLCFSTAQHAS"}}, "key": {"[1]": {"molecular_target": "chromodomain helicase DNA-binding protein 8 (human (endogenous in iPSC-derived NPCs)) (UniProt Q9HCK8)", "assay": "co-IP; 1 mg hiNPC nuclear fraction, 1 ug primary antibody overnight at 4°C, Protein A or G Sepharose, washed with NLB (150 mM KCl, 0.3% NP-40); western blot; for the CHD8 IP also after RNase A, DNase I or with EtBr"}, "[2]": {"molecular_target": "SETD2 (human (endogenous in iPSC-derived NPCs)) (UniProt Q9BYW2)", "assay": "co-IP; 1 mg hiNPC nuclear fraction, 1 ug primary antibody overnight at 4°C, Protein A or G Sepharose, washed with NLB (150 mM KCl, 0.3% NP-40); western blot; for the CHD8 IP also after RNase A, DNase I or with EtBr"}}, "note": "These are yes or no findings as the source states them, for the method shown. In cells and extracts the contact can be indirect. Some binding calls cover weakened binding; strength is not graded here."}
{"binder": "B1", "values": [{"measurement": "binding", "setting": "[1]", "result": "binds"}, {"measurement": "binding", "setting": "[2]", "result": "binds"}]}
